Here are results for one molecule from patent US7838556B2 (priority 2006, dated 2010).

This experiment has as its target GABA, Non-Selective. It is filed as binding. To be noted: read-out: Ki (M) Ref. Cpd.

For `NCCCC(=O)O` [Compound 2, gamma-aminobutyric acid, reference compound], the Ki was found to be 1.1e-08 M.
